Experimental data reported in US20160138021.
The exact form of at least one protein or probe is not confirmed. For some of these results: Negatives hold for the conditions tested. For some of these results: Where cells or extracts were used, other partners may take part.

By UniProt entry, the sequences of proteins in these tests, tags left out.
UniProt P01871, whole entry: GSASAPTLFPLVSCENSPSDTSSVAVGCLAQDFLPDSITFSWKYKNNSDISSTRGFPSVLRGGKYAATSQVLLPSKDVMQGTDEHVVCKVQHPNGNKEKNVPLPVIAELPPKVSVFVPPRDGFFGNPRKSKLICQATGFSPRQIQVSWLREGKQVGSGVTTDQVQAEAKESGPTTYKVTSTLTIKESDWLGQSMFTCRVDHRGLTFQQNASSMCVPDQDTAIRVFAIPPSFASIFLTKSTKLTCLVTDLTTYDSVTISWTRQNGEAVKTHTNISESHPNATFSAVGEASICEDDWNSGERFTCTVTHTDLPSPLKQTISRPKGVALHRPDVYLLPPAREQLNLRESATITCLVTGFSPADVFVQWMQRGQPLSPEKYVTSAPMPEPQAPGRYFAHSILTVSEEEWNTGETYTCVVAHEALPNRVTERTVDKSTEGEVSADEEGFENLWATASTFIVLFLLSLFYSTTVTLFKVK

Key:
[1] = test system: soluble IgM (pentameric); test: competition with a labelled probe; details: purified native protein, single-stranded DNA
[2] = target: membrane-bound IgM (mIgM, immunoglobulin heavy mu chain) on Ramos cells (Homo sapiens) (UniProt P01871); test: flow cytometry; details: Bmax/2 (Kd') on Ramos cells, 37 C, 20 mM MgCl2, protein on the cell surface, label: 5' Cy3, single-stranded DNA, letters built from the parent sequence and the stated change, variant of TD05.17

AGGAGGATAGTTCGGTGGCTGTTCAGGGTCTCCTCCT [TD05.1]
binding result ([1]; excess soluble IgM or 20% human serum does not affect aptamer binding to Ramos cells, label: 5' fluorophore, variant of TD05): no binding

AGGAGGATAGTTCGGTGGCTGTTCAGGGTCTCCTCCTAGGAGGATAGTTCGGTGGCTGTTCAGGGTCTCCTCCTAGGAGGATAGTTCGGTGGCTGTTCAGGGTCTCCTCCT [L-TVA.8S]
Kd ([2]; three LNA-modified TD05.17 joined by (PEG spacer 18)8, sp18 at 5' and 3' ends [LNA at 34,35,36,37,71,72,73,74,108,109,110,111, 5' label-sp18, (PEG spacer 18)8 between 37/38 and 74/75 and 3' sp18 left out, A75 taken from parent TD05.17 (missing in printed string)]): 256 nM

AGGAGGATAGTTCGGTGGCTGTTCAGGGTCTCCTCCTAGGAGGATAGTTCGGTGGCTGTTCAGGGTCTCCTCCTAGGAGGATAGTTCGGTGGCTGTTCAGGGTCTCCTCCTAGGAGGATAGTTCGGTGGCTGTTCAGGGTCTCCTCCT [L-TetVA.8S]
Kd ([2]; four LNA-modified TD05.17 joined by (PEG spacer 18)8, sp18 at 5' and 3' ends [LNA at 34,35,36,37,71,72,73,74,108,109,110,111,145,146,147,148, 5' label-sp18, (PEG spacer 18)8 between 37/38, 74/75 and 111/112 and 3' sp18 left out, A75 and A112 taken from parent TD05.17 (missing in printed string)]): 272 nM

AGGAGGATAGTTCGGTGGCTGTTCAGGGTCTCCTCCTAGGAGGATAGTTCGGTGGCTGTTCAGGGTCTCCTCCTAGGAGGATAGTTCGGTGGCTGTTCAGGGTCTCCTCCTAGGAGGATAGTTCGGTGGCTGTTCAGGGTCTCCTCCT [TetVA.8S]
binding result ([1]; four TD05.1 joined by (PEG spacer 18)8 [(PEG spacer 18)8 linkers between 37/38, 74/75 and 111/112 left out], excess soluble IgM does not affect binding to Ramos cells, decrease seen in 50% human serum, label: 5' FITC, letters built from the parent sequence and the stated change, variant of TD05.1): no binding
